Positions count from the first letter of the chain named. Names and notes keep the numbering of the source. Results are given in words; binding and its absence hold for the method and conditions named. For some of these results: In cells and extracts the contact can be indirect. Some results given as binding are weak or reduced against the parent protein; the word gives no strength. For some of these results: Where a sequence is shown, tags or fusion partners need not be part of it. Each block holds one binder with its values, some of them ahead of it.
What was measured:
[1] = target: T1, 3xFLAG-Nsa2 (S. cerevisiae) (UniProt P40078); experiment: co-IP; yeast YPH499 co-expressing a 3xFLAG-tagged interacting protein and 3xHA-Nop4 WT or L306P; lysate in NET2 (20 mM Tris-HCl pH 7.5, 150 mM NaCl, 0.01% Nonidet P-40) on α-FLAG beads 1 hr at 4°C; α-HA western blot; HA to FLAG ratio
T1 sequence: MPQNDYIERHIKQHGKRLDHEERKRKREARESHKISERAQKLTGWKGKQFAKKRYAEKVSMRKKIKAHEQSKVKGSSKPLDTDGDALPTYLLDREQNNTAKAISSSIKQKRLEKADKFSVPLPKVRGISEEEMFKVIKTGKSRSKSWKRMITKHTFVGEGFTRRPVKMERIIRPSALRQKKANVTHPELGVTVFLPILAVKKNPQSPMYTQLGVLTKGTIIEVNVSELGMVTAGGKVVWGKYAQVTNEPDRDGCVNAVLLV

[2] = target: T2, 3xFLAG-Nop4 (S. cerevisiae) (UniProt P37838); experiment: as above
T2 sequence: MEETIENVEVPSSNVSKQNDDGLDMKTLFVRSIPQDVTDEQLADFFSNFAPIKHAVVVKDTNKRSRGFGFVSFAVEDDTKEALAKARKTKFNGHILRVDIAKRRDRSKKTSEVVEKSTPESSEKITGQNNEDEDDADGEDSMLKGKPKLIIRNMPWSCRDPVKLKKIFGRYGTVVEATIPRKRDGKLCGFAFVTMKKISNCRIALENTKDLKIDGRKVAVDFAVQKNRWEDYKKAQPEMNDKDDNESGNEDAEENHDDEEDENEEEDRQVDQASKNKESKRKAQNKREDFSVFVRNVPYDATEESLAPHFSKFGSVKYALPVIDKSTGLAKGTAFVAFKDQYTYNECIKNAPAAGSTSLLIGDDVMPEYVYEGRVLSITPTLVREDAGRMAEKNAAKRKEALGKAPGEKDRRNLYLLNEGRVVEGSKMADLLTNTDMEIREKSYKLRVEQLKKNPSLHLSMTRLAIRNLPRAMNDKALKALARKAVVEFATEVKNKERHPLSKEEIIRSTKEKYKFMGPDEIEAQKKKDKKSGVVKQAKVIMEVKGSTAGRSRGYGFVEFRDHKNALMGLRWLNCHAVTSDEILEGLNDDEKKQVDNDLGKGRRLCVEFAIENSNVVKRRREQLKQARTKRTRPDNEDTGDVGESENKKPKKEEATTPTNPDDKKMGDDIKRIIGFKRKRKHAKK

[3] = target: T3, 3xFLAG-Dbp10 (S. cerevisiae) (UniProt Q12389); experiment: as above
T3 sequence: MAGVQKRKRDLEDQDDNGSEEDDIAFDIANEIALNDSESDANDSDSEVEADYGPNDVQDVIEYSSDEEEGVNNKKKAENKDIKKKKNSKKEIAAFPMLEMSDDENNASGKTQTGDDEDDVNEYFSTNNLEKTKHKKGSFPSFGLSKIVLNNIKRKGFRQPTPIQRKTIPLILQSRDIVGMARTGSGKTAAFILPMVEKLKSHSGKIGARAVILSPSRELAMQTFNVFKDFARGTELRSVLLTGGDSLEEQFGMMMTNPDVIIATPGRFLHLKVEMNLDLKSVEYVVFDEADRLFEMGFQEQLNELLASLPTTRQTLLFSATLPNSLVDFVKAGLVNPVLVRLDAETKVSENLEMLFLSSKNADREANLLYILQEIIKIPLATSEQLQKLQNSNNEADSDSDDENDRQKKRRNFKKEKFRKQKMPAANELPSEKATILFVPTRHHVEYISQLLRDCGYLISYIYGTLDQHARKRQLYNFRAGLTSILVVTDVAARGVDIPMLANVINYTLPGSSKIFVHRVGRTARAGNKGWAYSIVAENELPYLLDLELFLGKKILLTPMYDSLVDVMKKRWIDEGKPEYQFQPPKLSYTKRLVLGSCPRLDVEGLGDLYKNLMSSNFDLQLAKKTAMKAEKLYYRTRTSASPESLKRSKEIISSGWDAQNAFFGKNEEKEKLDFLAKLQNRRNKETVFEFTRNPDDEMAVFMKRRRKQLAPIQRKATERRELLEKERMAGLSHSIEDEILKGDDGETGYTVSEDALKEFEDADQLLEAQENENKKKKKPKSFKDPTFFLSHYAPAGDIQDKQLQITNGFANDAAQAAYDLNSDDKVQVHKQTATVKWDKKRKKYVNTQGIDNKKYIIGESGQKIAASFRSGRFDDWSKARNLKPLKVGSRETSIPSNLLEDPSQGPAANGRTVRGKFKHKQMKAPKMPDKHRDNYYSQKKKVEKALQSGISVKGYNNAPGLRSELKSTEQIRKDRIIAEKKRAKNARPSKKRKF

[4] = target: T4, 3xFLAG-Mak5 (S. cerevisiae) (UniProt P38112); experiment: as above
T4 sequence: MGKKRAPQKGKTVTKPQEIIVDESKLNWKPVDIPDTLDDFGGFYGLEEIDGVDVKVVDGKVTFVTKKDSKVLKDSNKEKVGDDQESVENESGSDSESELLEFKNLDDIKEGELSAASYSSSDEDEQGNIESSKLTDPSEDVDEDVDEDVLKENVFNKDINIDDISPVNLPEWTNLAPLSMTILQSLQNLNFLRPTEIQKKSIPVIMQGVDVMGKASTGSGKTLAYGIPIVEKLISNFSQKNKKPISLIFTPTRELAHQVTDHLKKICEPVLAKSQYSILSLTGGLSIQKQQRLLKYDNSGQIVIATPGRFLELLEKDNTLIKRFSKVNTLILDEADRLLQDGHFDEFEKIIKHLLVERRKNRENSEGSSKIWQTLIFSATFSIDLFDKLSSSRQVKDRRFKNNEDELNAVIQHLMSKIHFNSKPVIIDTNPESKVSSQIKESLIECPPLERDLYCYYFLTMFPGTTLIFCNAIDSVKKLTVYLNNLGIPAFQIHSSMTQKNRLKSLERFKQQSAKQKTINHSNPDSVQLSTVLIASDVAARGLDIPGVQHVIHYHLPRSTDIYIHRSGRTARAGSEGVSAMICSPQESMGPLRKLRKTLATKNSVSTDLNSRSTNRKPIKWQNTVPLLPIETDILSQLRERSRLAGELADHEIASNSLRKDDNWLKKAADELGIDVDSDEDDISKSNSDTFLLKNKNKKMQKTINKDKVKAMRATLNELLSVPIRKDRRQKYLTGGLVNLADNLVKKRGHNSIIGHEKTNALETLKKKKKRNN

[5] = target: T5, Nop4 (Y2H bait, pAS2-1) (S. cerevisiae) (UniProt P37838); experiment: two-hybrid; directed Y2H; baits in pAS2-1 co-transformed with preys in pACT2 into PJ69-4α; serial dilutions on SD-Leu-Trp-His + 6 mM 3-AT, 30°C, 7 days
T5 sequence: T2 sequence

[6] = target: T6, Mak5 (Y2H bait, pAS2-1) (S. cerevisiae) (UniProt P38112); experiment: as above
T6 sequence: T4 sequence

[7] = target: T7, Dbp10 (Y2H bait, pAS2-1) (S. cerevisiae) (UniProt Q12389); experiment: as above
T7 sequence: T3 sequence

[8] = target: T8, Nsa2 (Y2H bait, pAS2-1) (S. cerevisiae) (UniProt P40078); experiment: as above
T8 sequence: T1 sequence

- binding [5]: binds
- binding [6]: binds
- binding [7]: binds
- binding [8]: binds
B3: Nop4 WT (Y2H prey, pACT2) (protein, UniProt P37838 1-685)
chain: T2 sequence

- binding [5]: no binding
- binding [6]: no binding
- binding [7]: binds
- binding [8]: no binding
B4: Nop4 L306P (Y2H prey, pACT2) (protein, UniProt P37838 1-685)
chain: T2 sequence with L306P

Second part, the binder before the results:

B1: 3xHA-Nop4 WT (protein, UniProt P37838 1-685)
chain: T2 sequence
- binding [1]: binds
- binding [2]: binds
- binding [3]: binds
- binding [4]: binds

B2: 3xHA-Nop4 L306P (protein, UniProt P37838 1-685)
chain: T2 sequence with L306P
- binding [3]: binds

— paper PMC4859800
